Mtb growth Cornell: 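Whole-cell assay for inhibitors of Mycobacterium tuberculosis growth, labelled Cornell in the record; the read-out is not stated. The concentration is filed as 10 mM, unlikely as a test dose, so the dose is not known. The record gives no direction; compounds strong in two other growth screens of this library score well above the rest, so higher reads as stronger inhibition. About 53,000 compounds were tested under these conditions; 1.7% (about 900) showed 50% or more at least once.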
Mtb heat-shock: 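Assay on Mycobacterium tuberculosis, filed only as a heat shock assay from Cornell; the read-out is not stated. The concentration is filed as 10 mM, unlikely as a test dose, so the dose is not known. Higher reads as stronger inhibition (inferred: compounds with an IC50 in retests scored well above the rest). Size under these conditions: about 69,000 compounds, about 930 of them at 50% or above in at least one test.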

The filed quantity is “Percent Effect” (%).
The record does not define 0% and 100%; most values in the screen are far below 50% and negative numbers occur (in some assays of this library far below -100).
Compounds were drawn at random from those tested, without regard to their results.
A dash means the value is not listed here; it may have been measured.

| compound | Mtb growth Cornell | Mtb heat-shock |
|---|---|---|
| `CS(=O)(=O)CCNC(=O)N1CC2(CCCC2)c2ccccc21` | 35.71 | 12.73 |
| `O=C(CCn1ccnc1)N1C[C@@H](O)[C@H](Oc2cccc(F)c2)C1` | -22.02 | -19.85 |
| `[H][C@]12CC[C@]([H])(CN(c3ncccn3)C1)N(C(=O)Cn1ccc(=O)cc1)C2` | -18.71 | -60.37 |
| `Cc1cc(-c2nccs2)nc(C2CCN(Cc3ccncc3)CC2)n1.Cl` | 7.115 | -12.67 |
| `O=C(Cc1ccon1)NC1CC2(CCC2)Oc2ccccc21` (stereo unspecified) | 13.67 | 5.321 |
| `Cc1cccc(C2(CNC(=O)CCN3C(=O)CCC3=O)CCCC2)c1` | 27.48 | 4.601 |
| `Oc1nnc(-c2cccs2)c2sc(N3CCCCC3)nc12` | 1.834 | 8.854 |
| `CCn1cnnc1C1CCN(C(=O)c2cccc(N(C)C)c2)CC1` | 21.65 | 0.8324 |
| `O=C(CCC1CCCC1)N1CCC(c2ncc3c(n2)CCNC3)CC1` | -9.818 | 14.08 |
| `CC(C)OCCCNC(=O)c1ccc(-c2ccco2)[nH]c1=O` | 5.39 | 34.12 |
| `O=C1CC2(CCSC2)C(=O)N1Cc1ncc(-c2cccc(F)c2)o1` (stereo unspecified) | 35.04 | -38.91 |
| `Cc1ccccc1CNC(=O)CN1CCN(Cc2nccn2C)CC1` | -6.903 | -7.787 |
| `[H][C@@]12CN(Cc3ccoc3)CCO[C@]1([H])CN(C(=O)CC1CCCC1)C2` | 28.83 | 2.81 |
| `NC(=O)c1ccc(OCCC(=O)NC2CCc3c(F)cccc32)cc1` (stereo unspecified) | -20.49 | -15.46 |
| `CN(CC1(CO)CCCC1)c1nc2c(c(=O)[nH]1)Cc1ccccc1OC2` | 29.46 | -6.38 |
| `Cc1cc(C2CCCN(C(=O)Cc3csc(C(C)C)n3)C2)n[nH]1` (stereo unspecified) | - | -4.684 |
| `O=C(c1scc2c1OCCO2)N1CCOC(CCc2ccccc2)C1` (stereo unspecified) | -2.54 | -3.763 |
| `Cc1nsc(N2CCCN(CC(=O)N(C)C3CC3)CC2)n1` | - | 2.972 |
| `O=C(Nc1cccs1)N1CC(c2nc(C3CC3)no2)C1` | 107.8 | 22.35 |
| `CC(=O)N1CCN(C(=O)CN2CCCC2c2c(C)nn(C)c2C)CC1` (stereo unspecified) | -49.4 | 2.853 |
| `O=C(NCc1ccccc1Cn1cncn1)C1CCCC1` | 0.5526 | -1.274 |
| `CNC(=O)C(C)CN(C)C(=O)Nc1cc(-n2cccc2)ccc1F` (stereo unspecified) | - | -14.42 |
| `O=C(O)CC(NC(=O)CCCc1cccs1)c1ccc(F)cc1` (stereo unspecified) | 18.62 | 0.3596 |
| `Cc1cc(C)c(CNC(=O)C2CCCN(c3cnccn3)C2)c(=O)[nH]1` (stereo unspecified) | - | 7.39 |
| `OC(CNc1ncnc2c1CCNCC2)C(F)(F)F` (stereo unspecified) | 9.471 | -8.799 |
| `CC(C)c1ncc(C(=O)N(C)c2ccc(Br)cn2)s1` | -19.26 | -30.81 |
| `O=C(c1ccoc1)N1CCc2ncnc(NCc3ccccn3)c2CC1` | 16.81 | 62.71 |
| `Cc1cc(-c2nccs2)nc(C2CCN(Cc3cccs3)CC2)n1` | 25.07 | 3.22 |
| `CCCNC(=O)N1CCN(Cc2cc(C)no2)CC1` | 17.31 | 18.1 |
| `CN(C)CCCn1ccnc1C1CCN(C(=O)Cc2cccnc2)CC1` | 6.158 | -10.33 |
| `CC1c2ncc(Cn3cncn3)n2CCN1C(=O)[C@H]1CCCO1` (stereo partly specified) | 23.09 | -5.702 |
| `Cc1nc2c(C#N)cnn2c(C)c1CCC(=O)N(C)C1CC1` | 31.03 | 4.701 |
| `CCOc1ncccc1C(=O)NC1CC(=O)N(CC(F)(F)F)C1` (stereo unspecified) | 23.33 | -3.038 |
| `COCC(=O)NCCc1nc2cc(-c3ccc(OC)cc3)ncn2n1` | 48.11 | -13.43 |
| `COc1cc(CNc2cc(-c3ccoc3C)nn2CCO)ccc1F` | 4.318 | -4.822 |
| `CC(C)OC(=O)CN1N=C(C(=O)N2CCCC2)S(=O)(=O)c2ccccc21` | -0.4855 | 18.24 |
| `Cc1cccc(CN2C(=O)CCC23CCN(Cc2nccn2C)CC3)n1` | -20.29 | -31.72 |
| `Cc1nc(C2CCCN(C(=O)COCCc3ccccc3)C2)no1` (stereo unspecified) | -4.423 | -16.04 |
| `Cc1cc(-c2cnc(NCc3ccncc3)nc2C(C)C)on1` | 71.23 | 15.52 |
| `O=C(O)C(F)(F)F.O=C(O)C(F)(F)F.[H][C@]12CCN(Cc3ccccn3)C[C@@]1([H])OCCN(Cc1csc(C)n1)C2` | 8.424 | -0.9653 |
| `O=C(CCc1cscn1)N1CCCC(c2ccn[nH]2)C1` (stereo unspecified) | -31.05 | -11.22 |
| `Cc1nc(CN2CCCN(CC(=O)Nc3ccncc3)CC2)no1` | -12.19 | 6.378 |
| `CCSCCC(=O)Nc1ncn(CC(=O)NCc2ccccc2)n1` | 18.45 | 32.84 |
| `[H][C@]12CC[C@]([H])(CN(Cc3cscn3)C1)N(C(=O)CN1CCOC1=O)C2` | -31.29 | -10.76 |
| `CN1CCN(C(=O)Cn2ccc3c(Cl)cccc32)CC1` | -16.09 | 13.86 |
| `CCOC1COC2(CCN(CC3CC3)CC2)C1.O=C(O)C(F)(F)F` (stereo unspecified) | -16.8 | -11.36 |
| `CC(CNC(=O)NCCCc1cc(N)n(-c2ccccc2)n1)N(C)C` (stereo unspecified) | -4.657 | -14.36 |
| `Cn1ccnc1CN1CCCC(CCCc2ccccn2)(C(N)=O)C1` (stereo unspecified) | 9.614 | -6.458 |
| `COCc1nc(N2CC[C@H](N(C)C)C2)c2cnn(C)c2n1` | 10.11 | -4.11 |
| `CCCn1cc(C(=O)NCC(=O)NC2CC2)c(C)n1` | -22.31 | 6.089 |

The last 5 entries again:

| compound | Mtb growth Cornell | Mtb heat-shock |
|---|---|---|
| `CCOC1COC2(CCN(CC3CC3)CC2)C1.O=C(O)C(F)(F)F` (stereo unspecified) | -16.8 | -11.36 |
| `CC(CNC(=O)NCCCc1cc(N)n(-c2ccccc2)n1)N(C)C` (stereo unspecified) | -4.657 | -14.36 |
| `Cn1ccnc1CN1CCCC(CCCc2ccccn2)(C(N)=O)C1` (stereo unspecified) | 9.614 | -6.458 |
| `COCc1nc(N2CC[C@H](N(C)C)C2)c2cnn(C)c2n1` | 10.11 | -4.11 |
| `CCCn1cc(C(=O)NCC(=O)NC2CC2)c(C)n1` | -22.31 | 6.089 |

From ChEMBL document CHEMBL3988442, “University of Dundee, Small-Polar-MMV Screening Library” (2021).